Test results as given in PubChem BioAssay AID504444 (National Center for Advancing Translational Sciences (NCATS), 2011).
Where “and” joins values, the source holds several entries; their conditions need not be identical. Identical values can stand only once. The campaign covered roughly 360,000 compounds. About 7,500 (2.1%) were called active. Inconclusive results, whose numbers are uncertain, are shown with a selection of clear calls. The call rests on the fitted dose curve; in most records, active means well fitted inhibition curve with a large enough effect; inconclusive means small, poorly fitted or top-dose-only effect, or effect the other way; inactive means flat fitted curve, though single readings scatter. Potencies beside an inconclusive call are fits to weak or partial responses and may not hold up. A structure can be active in one record and inactive in another.

Experiment: Nrf2 qHTS screen for inhibitors; further: nearly all actives have a fitted effect of over 60% in size
Conditions: A549 ARE-Fluc reporter, luciferase luminescence, 18-24 h; activity change, negative = inhibition: at 46 µM (top of the series)
Summary of the method: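 Nrf2 activity is the BugLite luminescence, read 15 min after reagent at room temperature, following CellTiter-Fluor cytotoxicity readout (30 min, 37C). Compound titrations were applied for 18-24 h to 5000 A549 ARE_Fluc cells/well in 5% FBS OPTI-MEM.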
On the % scale 0 is the no-effect control and ±100 the full control effect; potency means the concentration at half of the fitted maximal effect.

Row | Structure (SMILES) | activity change, negative = inhibition | Potency
1 | Cc1ccc(NC(=S)NC2CCN(Cc3ccccc3)CC2)c(C)c1 | inactive: 10.2% | 
2 | CN(Cc1ccccc1)C(=O)C1CCN(S(C)(=O)=O)CC1 | inactive: 6.7% | 
3 | CN1/C(=C\C(=O)c2cccnc2Cl)C(C)(C)c2ccccc21 |  | inconclusive: 7.31 µM [activator, partial curve]
4 | Cc1ccc(S(=O)(=O)Nc2c(C)nn(C)c2C)cc1C |  | inconclusive: 23.1 µM [falling, single point]
5 | CCOC(=O)/C(=N\Nc1ncnc2ccccc12)c1ccc(OC)cc1 |  | inconclusive: 8.2 µM [activator, partial curve]
6 | CCOc1ccccc1C(=O)Nc1ccc(S(=O)(=O)Nc2ncccn2)cc1 |  | inconclusive: 25.9 µM [falling, partial curve, poor fit]
7 | CCCc1cc(C(=O)NCc2ccco2)no1 |  | inconclusive: 20.6 µM [activator, single point]
8 | CC(C)n1nc(C(=O)Nc2cccc(S(=O)(=O)N3CCCCC3)c2)c2ccccc2c1=O |  | inconclusive: 20.6 µM [falling, single point]
9 | Cn1cnnc1SC1c2cccc3cccc(c23)C1NS(=O)(=O)c1ccc(Cl)cc1 (configuration not stated) | inactive: 19.8% | 
10 | O=C(Nc1cc(=O)[nH]c2ncnn12)c1ccccc1Cl |  | inconclusive: 2.06 µM [falling, partial curve, poor fit]
11 | CC1=CC(=NOC(=O)c2cccc([N+](=O)[O-])c2)C=C(C)C1=O | inactive: -6.1% | 
12 | CS(=O)(=O)N(CCc1ccccc1)CC(=O)N1CCN(Cc2ccc3c(c2)OCO3)CC1 |  | inconclusive: 14.6 µM [falling, partial curve, poor fit]
13 | Cc1ccc(S(=O)(=O)N2CCN(C(=O)COC(=O)CNC(=O)c3ccc(C(C)(C)C)cc3)CC2)c(C)c1 |  | inconclusive: 4.11 µM [activator, partial curve]
14 | CCOc1ccc(C(=O)NCC(=O)OCC(=O)Nc2ccc(C)c(S(=O)(=O)N(C)C)c2)cc1 | inactive: -11.6% | 
15 | CC1(C)CC(=O)C(C(=S)Nc2ccccc2)=C(NCCN2CCOCC2)C1 | inactive: 6.53% | 
16 | CCOC(=O)c1c(C)[nH]c(C)c1S(=O)(=O)NCC(=O)NCc1ccccc1Cl |  | inconclusive: 18.4 µM [activator, single point]
17 | COc1ccc(C2C(C#N)=C(C)NC3=C2C(=O)c2ccccc23)cc1 (configuration not stated) |  | inconclusive: 20.6 µM [falling, partial curve, poor fit]
18 | CC1CCCCN1C(=O)CSc1nnc(-c2ccc(Cl)s2)o1 (configuration not stated) |  | inconclusive: 8.2 µM [activator, partial curve, poor fit]
19 | COc1ccccc1CNS(=O)(=O)c1ccc2c(c1)CC(C)N2C(=O)C1CCC1 (configuration not stated) |  | active: 18.4 µM
20 | CCC(=O)c1ccc(N2CCN(C(=O)c3cccc(F)c3)CC2)c(F)c1 |  | inconclusive: 18.4 µM [falling, partial curve, poor fit]
21 | COC(=O)[C@]1(C)N[C@H](CN(C)C(C)=O)[C@@H]2C(=O)N(Cc3ccccc3)C(=O)[C@@H]21 | inactive: 9.13% | 

Row | Structure (SMILES) | activity change, negative = inhibition | Potency
22 | Cc1ccccc1-c1nnc(SCC(=O)NC2CCCCC2)o1 |  | inconclusive: 7.31 µM [falling, partial curve, poor fit]
23 | COCCOCC(O)CN1CCN(c2ccccc2)CC1 (configuration not stated) |  | inconclusive: 7.31 µM [activator, partial curve]
24 | COc1ccc(N2CCN(C(=O)C(C)n3c(=O)cc(C(F)(F)F)c4c(C)nn(C)c43)CC2)cc1 (configuration not stated) |  | inconclusive: 7.31 µM [activator, partial curve, poor fit]
25 | Cc1cccn2cc(CNc3ccccc3)nc12 |  | inconclusive: 23.1 µM [activator, single point]
26 | COc1cc(NC(=O)C2Cc3ccccc3CN2S(C)(=O)=O)cc(OC)c1 (configuration not stated) | inactive: -13.8% | 
27 | CCCCCCCCCCCCCCCCn1cc[n+](C)c1 |  | active: 5.17 µM and active: 8.2 µM
28 | Cc1ccc2c(c1)COc1c3ccc(C(=O)O)cc3nn1-2 |  | inconclusive: 11.6 µM [falling, single point]
29 | CCOCc1c(C(=O)NC2=Nc3ccccc3NC(CC)=C2C(=O)OCC)oc2ccccc12 |  | inconclusive: 18.4 µM [falling, partial curve, poor fit]
30 | O=C(Nc1ccc(N2CCOCC2)c(F)c1)c1cccs1 |  | inconclusive: 3.66 µM [activator, partial curve]
31 | COC(=O)N[C@H](c1ccccc1)[C@@]1(C)C[C@@H]1[C@@H](C)C(=O)Nc1ccc2ccccc2c1 |  | inactive and active: 18.4 µM
32 | O=C(COC(=O)CN1C(=O)C2CC=CCC2C1=O)Nc1cc(C(F)(F)F)ccc1N1CCOCC1 (configuration not stated) |  | inconclusive: 3.66 µM [falling, full curve, poor fit]
33 | Cc1ccc2nc(N3CCOCC3)c(C=O)c(=O)n2c1 | inactive: 1.91% | 
34 | Cc1nc(NC(=O)c2ccccc2O)sc1C |  | inconclusive: 8.2 µM [activator, partial curve]
35 | CCN(CCn1cccn1)C(=O)CCc1nnc(CCc2ccccc2OC)o1 |  | inconclusive: 5.8 µM [activator, full curve, poor fit]
36 | CCCCn1c(SCc2nc3ccccc3s2)nc2cc(S(N)(=O)=O)ccc21 |  | inconclusive: 29.1 µM [falling, single point]
37 | CCOc1ccc(S(=O)(=O)N2CCC(C(=O)N3CCCCCC3)CC2)cc1Cl |  | inconclusive: 18.4 µM [falling, single point]
38 | CN(Cc1ccc(F)cc1)C(=O)C(Cc1ccccc1)NC(=O)c1ccccc1 (configuration not stated) | inactive: -4.08% | 
39 | CC(C)NC(=O)C1CCN(C(=O)c2cc3sccc3n2Cc2ccc(F)cc2)CC1 |  | active: 14.6 µM
40 | COc1ccc(C2c3c(ncn(CCCO)c3=N)Oc3ccc4ccccc4c32)cc1 (configuration not stated) |  | inconclusive: 23.1 µM [activator, single point]
41 | CC(O)C1CCC2C3CC[C@H]4CC(O)CCC4(C)C3CC3(OCCO3)C12C (some centres not stated) |  | inconclusive: 0.651 µM [falling, full curve, poor fit]
42 | COc1ccc(Nc2ncnc3onc(C)c23)c(OC)c1 |  | inconclusive: 0.517 µM [activator, full curve, poor fit]
